One sequence from paper PMC5996148 can be followed below.

Amino acid sequences for entries named in this document (tags omitted). A change or cut given only in a name is not applied to a line headed by its entry.
UniProt P04053: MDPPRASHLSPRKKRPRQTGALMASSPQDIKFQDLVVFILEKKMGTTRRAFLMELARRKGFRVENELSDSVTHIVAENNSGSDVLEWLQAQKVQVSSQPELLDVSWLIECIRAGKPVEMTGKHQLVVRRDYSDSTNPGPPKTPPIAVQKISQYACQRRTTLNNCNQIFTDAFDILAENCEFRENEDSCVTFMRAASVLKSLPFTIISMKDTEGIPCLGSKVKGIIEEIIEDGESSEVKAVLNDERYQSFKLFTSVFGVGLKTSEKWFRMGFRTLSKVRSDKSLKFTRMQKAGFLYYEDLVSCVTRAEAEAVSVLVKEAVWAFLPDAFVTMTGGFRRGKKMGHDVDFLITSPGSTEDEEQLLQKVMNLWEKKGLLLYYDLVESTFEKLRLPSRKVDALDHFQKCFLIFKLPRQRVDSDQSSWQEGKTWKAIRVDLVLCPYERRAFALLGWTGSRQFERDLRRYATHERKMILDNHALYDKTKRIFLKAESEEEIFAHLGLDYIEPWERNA

Values joined by “and” are separate entries in the source; they are usually repeats but may differ in a detail not shown here. Equal entries are not always repeated. Some of the results follow. For some assays here: Construct or isoform of the protein are uncertain.

Some test systems named below: DLX1 (human); DMD (human); DMKN (human); DMPK (human); DMRTC1 (human); DNAJC12 (human); DNAJC5G (human); DNAL1 (human); DPCR1 (human); DPP3 (human); DSCR4 (human); DTNB (human); DTNBP1 (human); DUSP6 (human); DUT (human).
Holding throughout (test): protein microarray (ProtoArray v5.0), streptavidin-Alexa Fluor 647
Common to all, as to conditions: 3'-biotin; 20 mM Tris (pH 7.5), 5 mM MgCl2, 100 mM KCl, 0.1% Tween-20, A/T-rich and random oligonucleotide blockers; temperature not stated; high values mean tight binding

The test system of experiment [1] is DNA replication complex GINS protein PSF3 (human).
Experiment [2] concerns DNA-directed RNA polymerase II subunit RPB11-a (human).
Experiment [3] deals with DNA-directed RNA polymerase III subunit RPC9 (human).
The target of another experiment is T1, DNAL4 (UniProt O96015).
T1 sequence: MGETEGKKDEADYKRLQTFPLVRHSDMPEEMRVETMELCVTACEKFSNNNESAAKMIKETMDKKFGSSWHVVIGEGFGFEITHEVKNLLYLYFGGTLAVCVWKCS

The target in another experiment is DNTT (UniProt P04053).

For the sequence “GGGGACAGGGGTATGGGGAGGGG [G4-3 biotinylated (CtG)]”, the binding signal was -0.329 z-score in the experiment on DLX1 (human); -0.334 z-score and -0.337 z-score with DMD (human); -0.3 z-score with DMKN (human); -0.316 z-score with DMPK (human); -0.326 z-score in the experiment with DMRTC1 (human); -0.323 z-score in experiment [1]. Also, the binding signal in experiment [2] was -0.329 z-score; in experiment [3] it was -0.308 z-score; in the experiment with DNAJC12 (human), -0.327 z-score; with DNAJC5G (human), -0.327 z-score; in the experiment on DNAL1 (human), -0.324 z-score; with DNAL4, -0.327 z-score. Also, the binding signal with DNTT was 5.35 z-score; in the experiment on DPCR1 (human), -0.318 z-score; with DPP3 (human), -0.307 z-score; with DSCR4 (human), -0.322 z-score; in the experiment with DTNB (human), -0.32 z-score; with DTNBP1 (human), -0.334 z-score. The binding signal with DUSP6 (human) is -0.338 z-score; with DUT (human), -0.309 z-score.
